# Source: paper PMC13321232
# These are yes or no findings as the source states them, for the method shown. Binding seen in cells or lysates may run through a third protein. Some entries that bind do so weakly or less than the wild type. Tags and fused reporters may be left off the sequences shown.
# T1: PXY-nLUC (Arabidopsis thaliana) (UniProt Q9FII5)
# T1 sequence: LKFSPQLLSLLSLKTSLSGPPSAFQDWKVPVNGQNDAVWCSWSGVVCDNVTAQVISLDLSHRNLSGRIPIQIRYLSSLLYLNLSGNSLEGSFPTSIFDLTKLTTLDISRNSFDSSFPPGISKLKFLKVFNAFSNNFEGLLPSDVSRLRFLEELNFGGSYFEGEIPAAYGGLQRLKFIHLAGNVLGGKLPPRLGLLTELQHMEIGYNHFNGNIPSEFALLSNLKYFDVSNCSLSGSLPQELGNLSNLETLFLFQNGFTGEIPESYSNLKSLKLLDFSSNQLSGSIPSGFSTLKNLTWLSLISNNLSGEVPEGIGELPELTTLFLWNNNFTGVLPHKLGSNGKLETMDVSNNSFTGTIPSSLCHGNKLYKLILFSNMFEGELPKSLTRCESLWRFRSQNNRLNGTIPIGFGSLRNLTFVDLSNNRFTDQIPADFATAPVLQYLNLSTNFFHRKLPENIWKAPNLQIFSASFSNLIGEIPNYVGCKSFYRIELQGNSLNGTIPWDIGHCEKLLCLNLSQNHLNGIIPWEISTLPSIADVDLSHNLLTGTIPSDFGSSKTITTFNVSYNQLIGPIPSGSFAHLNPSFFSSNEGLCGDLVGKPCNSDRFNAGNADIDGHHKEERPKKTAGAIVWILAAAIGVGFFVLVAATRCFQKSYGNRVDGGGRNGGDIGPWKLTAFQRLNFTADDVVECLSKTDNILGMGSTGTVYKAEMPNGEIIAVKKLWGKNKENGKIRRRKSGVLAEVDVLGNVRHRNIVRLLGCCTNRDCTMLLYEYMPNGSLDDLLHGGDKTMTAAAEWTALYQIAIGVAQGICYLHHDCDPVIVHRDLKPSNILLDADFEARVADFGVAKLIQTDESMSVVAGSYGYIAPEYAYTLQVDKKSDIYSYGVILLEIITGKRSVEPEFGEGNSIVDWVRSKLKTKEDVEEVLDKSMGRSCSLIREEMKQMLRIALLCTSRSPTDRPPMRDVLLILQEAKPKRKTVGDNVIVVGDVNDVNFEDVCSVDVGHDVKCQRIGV
# T2: PXL1-nLUC (Arabidopsis thaliana) (UniProt Q9FRS6)
# T2 sequence: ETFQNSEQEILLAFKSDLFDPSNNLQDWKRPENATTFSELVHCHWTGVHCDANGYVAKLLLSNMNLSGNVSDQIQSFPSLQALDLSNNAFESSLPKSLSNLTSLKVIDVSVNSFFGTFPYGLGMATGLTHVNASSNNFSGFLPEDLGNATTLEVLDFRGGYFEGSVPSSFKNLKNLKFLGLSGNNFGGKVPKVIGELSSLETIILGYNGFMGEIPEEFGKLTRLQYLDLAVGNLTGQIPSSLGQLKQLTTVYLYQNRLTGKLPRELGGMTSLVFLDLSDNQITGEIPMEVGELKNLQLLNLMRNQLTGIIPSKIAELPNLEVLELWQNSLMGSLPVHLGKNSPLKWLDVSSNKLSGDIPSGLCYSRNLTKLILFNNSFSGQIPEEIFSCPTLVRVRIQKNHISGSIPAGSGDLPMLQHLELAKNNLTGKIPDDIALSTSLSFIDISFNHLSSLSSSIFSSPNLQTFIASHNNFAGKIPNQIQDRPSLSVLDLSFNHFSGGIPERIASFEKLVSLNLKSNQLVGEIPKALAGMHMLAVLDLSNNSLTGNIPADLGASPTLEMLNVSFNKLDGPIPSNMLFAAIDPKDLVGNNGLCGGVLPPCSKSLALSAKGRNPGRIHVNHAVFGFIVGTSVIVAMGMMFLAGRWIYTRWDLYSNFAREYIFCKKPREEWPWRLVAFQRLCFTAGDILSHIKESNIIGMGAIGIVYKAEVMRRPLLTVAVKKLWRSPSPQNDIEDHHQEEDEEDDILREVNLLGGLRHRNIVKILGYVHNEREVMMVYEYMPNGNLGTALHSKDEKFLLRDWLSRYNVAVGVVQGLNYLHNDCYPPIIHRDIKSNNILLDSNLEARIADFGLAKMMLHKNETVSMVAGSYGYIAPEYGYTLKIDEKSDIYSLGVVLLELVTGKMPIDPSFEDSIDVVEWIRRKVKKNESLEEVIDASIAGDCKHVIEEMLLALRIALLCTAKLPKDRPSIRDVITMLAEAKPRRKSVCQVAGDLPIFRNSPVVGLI
# T3: PXL2-nLUC (Arabidopsis thaliana) (UniProt Q9M0G7)
# T3 sequence: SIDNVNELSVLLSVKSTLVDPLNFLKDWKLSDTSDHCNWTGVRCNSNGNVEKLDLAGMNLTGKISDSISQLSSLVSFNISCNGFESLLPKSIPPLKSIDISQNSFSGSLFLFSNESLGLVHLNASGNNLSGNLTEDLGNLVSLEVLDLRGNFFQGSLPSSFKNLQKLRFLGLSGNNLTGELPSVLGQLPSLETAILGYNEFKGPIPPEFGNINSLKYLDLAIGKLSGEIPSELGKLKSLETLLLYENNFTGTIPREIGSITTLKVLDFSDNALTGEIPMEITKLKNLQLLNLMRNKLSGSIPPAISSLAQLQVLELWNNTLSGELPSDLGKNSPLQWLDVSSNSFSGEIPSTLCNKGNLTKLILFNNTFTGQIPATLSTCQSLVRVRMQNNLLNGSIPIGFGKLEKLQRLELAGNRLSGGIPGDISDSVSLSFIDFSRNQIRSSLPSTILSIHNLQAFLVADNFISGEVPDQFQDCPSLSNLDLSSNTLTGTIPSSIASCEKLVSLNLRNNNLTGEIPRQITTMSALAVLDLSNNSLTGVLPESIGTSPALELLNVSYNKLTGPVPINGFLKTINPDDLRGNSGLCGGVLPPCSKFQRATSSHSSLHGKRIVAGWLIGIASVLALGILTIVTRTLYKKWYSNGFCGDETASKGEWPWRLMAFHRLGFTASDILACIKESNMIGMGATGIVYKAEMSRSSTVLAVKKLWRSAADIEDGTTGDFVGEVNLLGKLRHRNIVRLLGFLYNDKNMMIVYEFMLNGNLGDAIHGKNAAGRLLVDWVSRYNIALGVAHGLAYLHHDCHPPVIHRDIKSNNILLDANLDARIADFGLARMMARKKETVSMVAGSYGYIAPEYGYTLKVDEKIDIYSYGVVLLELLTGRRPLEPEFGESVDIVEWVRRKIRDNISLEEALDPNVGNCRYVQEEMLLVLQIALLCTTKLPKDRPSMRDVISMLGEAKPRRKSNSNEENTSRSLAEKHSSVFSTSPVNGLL
# B1: ERL1-cLUC (receptor, UniProt C0LGW6 26-966)
# chain: MNNEGKALMAIKGSFSNLVNMLLDWDDVHNSDLCSWRGVFCDNVSYSVVSLNLSSLNLGGEISPAIGDLRNLQSIDLQGNKLAGQIPDEIGNCASLVYLDLSENLLYGDIPFSISKLKQLETLNLKNNQLTGPVPATLTQIPNLKRLDLAGNHLTGEISRLLYWNEVLQYLGLRGNMLTGTLSSDMCQLTGLWYFDVRGNNLTGTIPESIGNCTSFQILDISYNQITGEIPYNIGFLQVATLSLQGNRLTGRIPEVIGLMQALAVLDLSDNELVGPIPPILGNLSFTGKLYLHGNMLTGPIPSELGNMSRLSYLQLNDNKLVGTIPPELGKLEQLFELNLANNRLVGPIPSNISSCAALNQFNVHGNLLSGSIPLAFRNLGSLTYLNLSSNNFKGKIPVELGHIINLDKLDLSGNNFSGSIPLTLGDLEHLLILNLSRNHLSGQLPAEFGNLRSIQMIDVSFNLLSGVIPTELGQLQNLNSLILNNNKLHGKIPDQLTNCFTLVNLNVSFNNLSGIVPPMKNFSRFAPASFVGNPYLCGNWVGSICGPLPKSRVFSRGALICIVLGVITLLCMIFLAVYKSMQQKKILQGSSKQAEGLTKLVILHMDMAIHTFDDIMRVTENLNEKFIIGYGASSTVYKCALKSSRPIAIKRLYNQYPHNLREFETELETIGSIRHRNIVSLHGYALSPTGNLLFYDYMENGSLWDLLHGSLKKVKLDWETRLKIAVGAAQGLAYLHHDCTPRIIHRDIKSSNILLDENFEAHLSDFGIAKSIPASKTHASTYVLGTIGYIDPEYARTSRINEKSDIYSFGIVLLELLTGKKAVDNEANLHQLILSKADDNTVMEAVDPEVTVTCMDLGHIRKTFQLALLCTKRNPLERPTMLEVSRVLLSLVPSLQVAKKLPSLDHSTKKLQQENEVRNPDAEASQWFVQFREVISKSSI
# B2: ER-cLUC (receptor, UniProt Q42371 25-976)
# chain: EEGATLLEIKKSFKDVNNVLYDWTTSPSSDYCVWRGVSCENVTFNVVALNLSDLNLDGEISPAIGDLKSLLSIDLRGNRLSGQIPDEIGDCSSLQNLDLSFNELSGDIPFSISKLKQLEQLILKNNQLIGPIPSTLSQIPNLKILDLAQNKLSGEIPRLIYWNEVLQYLGLRGNNLVGNISPDLCQLTGLWYFDVRNNSLTGSIPETIGNCTAFQVLDLSYNQLTGEIPFDIGFLQVATLSLQGNQLSGKIPSVIGLMQALAVLDLSGNLLSGSIPPILGNLTFTEKLYLHSNKLTGSIPPELGNMSKLHYLELNDNHLTGHIPPELGKLTDLFDLNVANNDLEGPIPDHLSSCTNLNSLNVHGNKFSGTIPRAFQKLESMTYLNLSSNNIKGPIPVELSRIGNLDTLDLSNNKINGIIPSSLGDLEHLLKMNLSRNHITGVVPGDFGNLRSIMEIDLSNNDISGPIPEELNQLQNIILLRLENNNLTGNVGSLANCLSLTVLNVSHNNLVGDIPKNNNFSRFSPDSFIGNPGLCGSWLNSPCHDSRRTVRVSISRAAILGIAIGGLVILLMVLIAACRPHNPPPFLDGSLDKPVTYSTPKLVILHMNMALHVYEDIMRMTENLSEKYIIGHGASSTVYKCVLKNCKPVAIKRLYSHNPQSMKQFETELEMLSSIKHRNLVSLQAYSLSHLGSLLFYDYLENGSLWDLLHGPTKKKTLDWDTRLKIAYGAAQGLAYLHHDCSPRIIHRDVKSSNILLDKDLEARLTDFGIAKSLCVSKSHTSTYVMGTIGYIDPEYARTSRLTEKSDVYSYGIVLLELLTRRKAVDDESNLHHLIMSKTGNNEVMEMADPDITSTCKDLGVVKKVFQLALLCTKRQPNDRPTMHQVTRVLGSFMLSEQPPAATDTSATLAGSCYVDEYANLKTPHSVNCSSMSASDAQLFLRFGQVISQNSE
# B3: ERL2-cLUC (receptor, UniProt Q6XAT2 28-967)
# chain: MNNEGKALMAIKASFSNVANMLLDWDDVHNHDFCSWRGVFCDNVSLNVVSLNLSNLNLGGEISSALGDLMNLQSIDLQGNKLGGQIPDEIGNCVSLAYVDFSTNLLFGDIPFSISKLKQLEFLNLKNNQLTGPIPATLTQIPNLKTLDLARNQLTGEIPRLLYWNEVLQYLGLRGNMLTGTLSPDMCQLTGLWYFDVRGNNLTGTIPESIGNCTSFEILDVSYNQITGVIPYNIGFLQVATLSLQGNKLTGRIPEVIGLMQALAVLDLSDNELTGPIPPILGNLSFTGKLYLHGNKLTGQIPPELGNMSRLSYLQLNDNELVGKIPPELGKLEQLFELNLANNNLVGLIPSNISSCAALNQFNVHGNFLSGAVPLEFRNLGSLTYLNLSSNSFKGKIPAELGHIINLDTLDLSGNNFSGSIPLTLGDLEHLLILNLSRNHLNGTLPAEFGNLRSIQIIDVSFNFLAGVIPTELGQLQNINSLILNNNKIHGKIPDQLTNCFSLANLNISFNNLSGIIPPMKNFTRFSPASFFGNPFLCGNWVGSICGPSLPKSQVFTRVAVICMVLGFITLICMIFIAVYKSKQQKPVLKGSSKQPEGSTKLVILHMDMAIHTFDDIMRVTENLDEKYIIGYGASSTVYKCTSKTSRPIAIKRIYNQYPSNFREFETELETIGSIRHRNIVSLHGYALSPFGNLLFYDYMENGSLWDLLHGPGKKVKLDWETRLKIAVGAAQGLAYLHHDCTPRIIHRDIKSSNILLDGNFEARLSDFGIAKSIPATKTYASTYVLGTIGYIDPEYARTSRLNEKSDIYSFGIVLLELLTGKKAVDNEANLHQMILSKADDNTVMEAVDAEVSVTCMDSGHIKKTFQLALLCTKRNPLERPTMQEVSRVLLSLVPSPPPKKLPSPAKVQEGEERRESHSSDTTTPQWFVQFREDISKSSL
# Molecular target: T1, PXY-nLUC (Arabidopsis thaliana)
# Test: split reporter; split luciferase: nLUC and cLUC fusions coinfiltrated into Nicotiana leaves; 1 mM d-luciferin; luminescence by EMCCD camera
row,binding,Binder
1,no binding,B1
2,binds,B2
3,binds,B3

# Molecular target: T2, PXL1-nLUC (Arabidopsis thaliana)
# Test: as above
row,binding,Binder
1,binds,B1
2,binds,B2
3,binds,B3

# Molecular target: T3, PXL2-nLUC (Arabidopsis thaliana)
# Test: as above
row,binding,Binder
1,binds,B1
2,binds,B2
3,binds,B3
